The target in this assay is V5-tagged RRV 26–95 gH, expressed alone (rhesus monkey rhadinovirus (RRV) isolate 26–95).

No constants are given. Whether binding was seen depends on the method and setting. In cells and extracts the contact can be indirect. Binding calls can cover weak binding; strength is not graded here. Tags and fused reporters may be left off the sequences shown.

B1: myc-tagged full-length human Plxdc1 (receptor, UniProt Q8IUK5-1 19-500)
chain: LSPQPGAGHDEGPGSGWAAKGTVRGWNRRARESPGHVSEPDRTQLSQDLGGGTLAMDTLPDNRTRVVEDNHSYYVSRLYGPSEPHSRELWVDVAEANRSQVKIHTILSNTHRQASRVVLSFDFPFYGHPLRQITIATGGFIFMGDVIHRMLTATQYVAPLMANFNPGYSDNSTVVYFDNGTVFVVQWDHVYLQGWEDKGSFTFQAALHHDGRIVFAYKEIPMSVPEISSSQHPVKTGLSDAFMILNPSPDVPESRRRSIFEYHRIELDPSKVTSMSAVEFTPLPTCLQHRSCDACMSSDLTFNCSWCHVLQRCSSGFDRYRQEWMDYGCAQEAEGRMCEDFQDEDHDSASPDTSFSPYDGDLTTTSSSLFIDSLTTEDDTKLNPYAGGDGLQNNLSPKTKGTPVHLGTIVGIVLAVLLVAAIILAGIYINGHPTSNAALFFIERRPHHWPAMKFRSHPDHSTYAEVEPSGHEKEGFMEAEQC
In the case of B1, the binding entry is “binds”.

(Values after publication PMC7959344.)
